# In the supplement of paper PMC6289059:
# The other results are listed elsewhere or left out. Single values are uncertain, as repeats are few or missing.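 The cells are hepatocyte-like cells grown from human stem cells in which the DGUOK gene was disrupted by CRISPR, a model of liver mtDNA depletion syndrome. Each well's ATP signal was scored against the other wells on its plate, and a drug counted as a primary hit when its score was 3 or higher.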
# Test system: DGUOK Δ14/Δ5 iPSC-derived hepatocyte-like cells (SV20)
# Assay: ATP level (CellTiter-Glo luminescence) Z score relative to plate distribution, under 2-DG glycolysis block; higher = more cellular ATP (rescue of mitochondrial ATP production)
# Details: 5 µM; treatment time: day 15 to day 20 of differentiation (5 days); 2-deoxy-D-glucose: 20 mM for 24 h before assay
row,Compound,ATP level
1,NC(=O)c1ccc([N+](=O)[O-])cc1Cl,inactive: -25
2,CC(C)[C@H](N)C(=O)OCC(CO)OCn1cnc2c(=O)nc(N)[nH]c21 (some centres not stated),inactive: 0.692
3,O=C(/C=C/C(=O)Oc1ccccc1C(=O)O)Oc1ccccc1C(=O)O,inactive: 1.99
4,CC(=O)Oc1ccc2c(c1)CCC1C2CC[C@]2(C)C(=O)CCC12 (some centres not stated),inactive: -1.83
5,CN(C)c1nc(N(C)C)nc(N(C)C)n1,inactive: -4.59
6,CC(=O)O[C@@H]1C[C@@]23C[C@@]24CC[C@H](O[C@@H]2OC[C@@H](O)[C@H](O)[C@H]2O)C(C)(C)[C@@H]4CC[C@H]3[C@]2(C)C[C@@H]3O[C@]4(C[C@@H](C)[C@@H]3[C@@]12C)O[C@H](O)[C@@]1(C)O[C@@H]41,inactive: -1.62
7,CC(C)NCC(O)c1ccc2ccccc2c1 (configuration not stated),inactive: -2.23
8,CC(=O)O[C@]1(C(C)=O)CC[C@H]2[C@@H]3C[C@H](C)C4=CC(=O)CC[C@]4(C)[C@H]3CC[C@@]21C,inactive: -0.172
9,N[C@@H](Cc1ccccc1)C(=O)O,inactive: 0.541
10,O=C(O)c1cc(-c2ccccc2)nc2ccccc12,active: 4.5
11,C[C@H]1C[C@@H]2[C@H]([C@@H](O)C[C@@]3(C)[C@H]2CC[C@]3(O)C(=O)CO)[C@@]2(C)C=CC(=O)C=C12,inactive: 0.864
12,CCCNCC(O)COc1ccccc1C(=O)CCc1ccccc1 (configuration not stated),inactive: -9.13
13,O=[N+]([O-])c1cccc2cn[nH]c12,inactive: 1.67
14,COc1ccccc1OCC(O)CN1CCN(CC(=O)Nc2c(C)cccc2C)CC1 (configuration not stated),inactive: -3.86
15,COc1cc([C@@H]2c3cc4c(cc3[C@@H](O[C@@H]3O[C@@H]5CO[C@@H](C)O[C@H]5[C@H](O)[C@H]3O)[C@H]3COC(=O)[C@H]23)OCO4)cc(OC)c1O,inactive: 1.26
16,O=S(=O)(O)NC1CCCCC1,inactive: 1.86
17,CCc1cn([C@H]2C[C@H](O)[C@@H](CO)O2)c(=O)[nH]c1=O,inactive: 1.79
18,C[C@@H]1O[C@@H](O[C@H]2[C@H](Oc3cc(O)c4c(=O)cc(-c5ccc(O)cc5)oc4c3)O[C@H](CO)[C@@H](O)[C@@H]2O)[C@H](O)[C@H](O)[C@H]1O,inactive: 1.77
19,CCN(CC)CCc1nc(-c2ccccc2)no1,inactive: -0.149

row,Compound,ATP level
1,Cc1c(N(C)CS(=O)(=O)O)c(=O)n(-c2ccccc2)n1C,active: 9.89
2,CC(NCCC(c1ccccc1)c1ccccc1)c1ccccc1 (configuration not stated),inactive: -3.13
3,COc1cc2c3cc1Oc1c(OC)c(OC)cc4c1[C@@H](Cc1ccc(O)c(c1)Oc1ccc(cc1)C[C@@H]3N(C)CC2)N(C)CC4,inactive: -3.32
4,CC(=O)Oc1ccc2c(C)cc(=O)oc2c1,inactive: -0.772
5,COc1c2occc2c(OC)c2c(=O)cc(C)oc12,inactive: -0.606
6,C1CNCCN1,inactive: 1.38
7,Nc1cc(C(Cl)=C(Cl)Cl)c(S(N)(=O)=O)cc1S(N)(=O)=O,inactive: -3.68
8,C[C@H](CCC(=O)O)[C@H]1CC[C@H]2[C@@H]3[C@H](O)C[C@@H]4C[C@H](O)CC[C@]4(C)[C@H]3CC[C@]12C,inactive: 1.85
9,CC(=O)OCC(CCn1cnc2cnc(N)nc21)COC(C)=O,inactive: -4.58
10,NNc1nncc2ccccc12,inactive: -5.17
11,O=C(/C=C/c1ccc(O)c(O)c1)OCCc1ccccc1,active: 4.05
12,NCC(O)CC(=O)O (configuration not stated),inactive: -1.68
13,CN1CCN(CCCN2c3ccccc3Sc3ccc(Cl)cc32)CC1,inactive: -8.94
14,O=C1c2ccccc2C(=O)c2c1ccc(O)c2O,inactive: 1.31
15,CC(=O)Oc1cc(OC(C)=O)c2c(c1)O[C@H](c1ccc(OC(C)=O)c(OC(C)=O)c1)[C@H](OC(C)=O)C2,inactive: -1.53
16,CC(=O)O[C@H]1CC[C@@]2(C)[C@@H](CC[C@@H]3[C@@H]2CC(=O)[C@]2(C)[C@@H]4[C@H](C[C@@H]32)O[C@]2(CC[C@@H](C)CO2)[C@H]4C)C1,inactive: 0.535
17,O=c1oc2ccccc2c(O)c1Cc1c(O)c2ccccc2oc1=O,inactive: 1.41
18,COC(=O)/C=C/C(C)=C\C=C\C(C)=C\C=C\C=C(C)\C=C\C=C(C)\C=C\C(=O)O,inactive: -0.768
19,CN1CCCCC1CCN1c2ccccc2Sc2ccc([S+](C)[O-])cc21 (configuration not stated),inactive: -0.831

# Part of the list above, with bars between the fields.
row | Compound | ATP level
17 | O=c1oc2ccccc2c(O)c1Cc1c(O)c2ccccc2oc1=O | inactive: 1.41
18 | COC(=O)/C=C/C(C)=C\C=C\C(C)=C\C=C\C=C(C)\C=C\C=C(C)\C=C\C(=O)O | inactive: -0.768
19 | CN1CCCCC1CCN1c2ccccc2Sc2ccc([S+](C)[O-])cc21 (configuration not stated) | inactive: -0.831

# The listing continues:

row,Compound,ATP level
1,COc1c(-c2ccccc2)oc2cc(O)cc(O)c2c1=O,inactive: -2.44
2,NC(=O)N/N=C/c1ccc([N+](=O)[O-])o1,active: 3.93
3,O=C(O[C@H]1CN2CCC1CC2)N1CCc2ccccc2[C@@H]1c1ccccc1,inactive: -0.369
4,CC1=CC(=O)NS(=O)(=O)O1,inactive: 2.49
5,CCCC(=O)Nc1ncnc2c1ncn2[C@@H]1O[C@@H]2COP(=O)(O)O[C@H]2[C@H]1OC(=O)CCC,inactive: 1.11
6,CC(=O)N[C@@H](CCC(=O)O)C(=O)O,inactive: 0.083
7,CN(C)CCC[C@@]1(c2ccc(F)cc2)OCc2cc(C#N)ccc21,inactive: -1.05
8,O=C1C=CC2=C3c4cc(O)c(O)cc4CC3(O)COC2=C1 (configuration not stated),inactive: -8.25
9,CN1CCCC(n2nc(Cc3ccc(Cl)cc3)c3ccccc3c2=O)CC1 (configuration not stated),inactive: -3.95
10,O=C(CNC(=O)c1ccc(Cl)cc1)NO,inactive: 0.964
11,O=c1c(-c2ccccc2)coc2ccccc12,inactive: 0.41
12,CC(=O)Oc1cccc(O)c1,inactive: 0.714
13,CCN1CCN(C(=O)N[C@@H](C(=O)N[C@@H]2C(=O)N3[C@@H]2SC(C)(C)[C@@H]3C(=O)O)c2ccccc2)C(=O)C1=O,inactive: 1.7
14,C=CCCCCCCCCCCCC(O)CC(O)CO (configuration not stated),inactive: 2.52
15,O=C(NCO)c1cccnc1,inactive: -1.25
16,CO[C@@H]1[C@@H](OC(N)=O)[C@@H](O)[C@H](Oc2ccc3c(O)c(NC(=O)c4ccc(O)c(CC=C(C)C)c4)c(=O)oc3c2C)OC1(C)C,inactive: 2.64
17,CC1(C)OC(=O)NC1=O,inactive: 2.59
18,N=C(N)NCC1COC2(CCCCC2)O1 (configuration not stated),inactive: 1.61
19,CCC[C@H](N[C@@H](C)C(=O)N1[C@H](C(=O)O)C[C@@H]2CCCC[C@@H]21)C(=O)OCC,inactive: 1.06
